{
  "source": "the supplement of paper PMC3334620",
  "note": "Over roughly 33,000 sequences, “E-score (-0.5 to 0.5)” has its median near -0.016; the highest 2% begin near 0.3. Some of the results follow.",
  "data": [
    {"target": "T1, Yer184c (UniProt P39961)", "T1 sequence": "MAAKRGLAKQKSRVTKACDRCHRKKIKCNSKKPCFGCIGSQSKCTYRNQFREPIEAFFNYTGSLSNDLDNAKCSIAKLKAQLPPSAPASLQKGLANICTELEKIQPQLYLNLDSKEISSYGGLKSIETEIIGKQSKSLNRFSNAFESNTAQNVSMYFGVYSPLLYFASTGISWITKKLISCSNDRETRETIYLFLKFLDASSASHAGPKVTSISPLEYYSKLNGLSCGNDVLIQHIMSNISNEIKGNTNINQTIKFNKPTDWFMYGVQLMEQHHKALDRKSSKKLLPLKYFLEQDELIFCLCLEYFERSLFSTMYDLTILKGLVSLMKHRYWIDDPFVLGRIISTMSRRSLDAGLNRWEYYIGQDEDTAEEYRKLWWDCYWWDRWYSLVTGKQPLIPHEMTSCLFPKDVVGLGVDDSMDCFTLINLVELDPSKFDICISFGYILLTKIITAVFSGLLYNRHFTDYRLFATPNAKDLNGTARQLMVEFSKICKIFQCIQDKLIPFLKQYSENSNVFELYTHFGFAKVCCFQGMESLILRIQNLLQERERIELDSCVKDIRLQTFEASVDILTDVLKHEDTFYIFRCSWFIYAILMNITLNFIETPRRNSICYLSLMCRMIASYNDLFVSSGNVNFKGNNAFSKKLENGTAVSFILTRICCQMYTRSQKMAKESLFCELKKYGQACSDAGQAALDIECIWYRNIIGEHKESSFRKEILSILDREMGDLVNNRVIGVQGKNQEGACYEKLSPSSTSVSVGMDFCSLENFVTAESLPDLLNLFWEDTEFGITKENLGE", "assay": "PBM E-score (8-mer binding enrichment) (E-score (-0.5 to 0.5)); higher = stronger / more preferred TF binding", "details": "protein concentration: 100 nM; construct: GST-full length", "procedure,_shortened": "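The E-score, a modified Wilcoxon-Mann-Whitney statistic, was computed by the Universal PBM Analysis Suite for every ungapped eight-base word pooled with its reverse complement. Scans behind it were normalised with masliner after bound GST-tagged yeast transcription factors were detected with fluorescent anti-GST. The proteins, at about 100-200 nM, had been applied to universal all-10-mer Agilent arrays made double-stranded by primer extension.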", "values": [
      {"sequence": "ACTGCTCA", "PBM E-score": 0.0955},
      {"sequence": "GGTCCTTA", "PBM E-score": 0.0747},
      {"sequence": "AGATTCCG", "PBM E-score": 0.338},
      {"sequence": "CATATTAA", "PBM E-score": 0.256},
      {"sequence": "ACAGCCGG", "PBM E-score": 0.343},
      {"sequence": "ACCAAGCA", "PBM E-score": -0.111},
      {"sequence": "AGTTATGC", "PBM E-score": 0.0743},
      {"sequence": "ACCGCCTA", "PBM E-score": -0.152},
      {"sequence": "ACAGCACC", "PBM E-score": -0.0581},
      {"sequence": "CCATTTTC", "PBM E-score": 0.0722},
      {"sequence": "GGTTTGGA", "PBM E-score": -0.135},
      {"sequence": "ATGTCGTG", "PBM E-score": -0.082},
      {"sequence": "AGTTATAA", "PBM E-score": 0.0816},
      {"sequence": "CTAATTCA", "PBM E-score": -0.0318},
      {"sequence": "CGCATGTA", "PBM E-score": -0.136},
      {"sequence": "CGTACAAG", "PBM E-score": -0.0379},
      {"sequence": "AAGCTCGA", "PBM E-score": 0.242},
      {"sequence": "ACTGTTAC", "PBM E-score": -0.257},
      {"sequence": "ATGTCTGA", "PBM E-score": -0.0779},
      {"sequence": "CAGTGAAA", "PBM E-score": 0.165},
      {"sequence": "ATCCAGCA", "PBM E-score": -0.0307},
      {"sequence": "CCGCATAC", "PBM E-score": 0.0315},
      {"sequence": "GCGTATAC", "PBM E-score": 0.0684},
      {"sequence": "GGTCAGCA", "PBM E-score": -0.0368},
      {"sequence": "AGGAGAAC", "PBM E-score": -0.157},
      {"sequence": "CGTTGTAC", "PBM E-score": 0.0468},
      {"sequence": "ATGGAGTA", "PBM E-score": -0.0278},
      {"sequence": "GTGAGGGA", "PBM E-score": -0.252},
      {"sequence": "TAAGCACA", "PBM E-score": 0.189},
      {"sequence": "GTCCTCAA", "PBM E-score": 0.0117},
      {"sequence": "AATTCTGA", "PBM E-score": 0.128},
      {"sequence": "CGGGTCCC", "PBM E-score": -0.255},
      {"sequence": "GACGCGGA", "PBM E-score": 0.136},
      {"sequence": "CAACGTCG", "PBM E-score": -0.0505},
      {"sequence": "ATCCCATG", "PBM E-score": -0.297},
      {"sequence": "ATGTGCTC", "PBM E-score": 0.0673},
      {"sequence": "CTCAAGGC", "PBM E-score": -0.0742},
      {"sequence": "ATACACTC", "PBM E-score": 0.12},
      {"sequence": "GGCGCGTA", "PBM E-score": -0.194},
      {"sequence": "GATATTCC", "PBM E-score": 0.16},
      {"sequence": "CGCATATA", "PBM E-score": -0.0227},
      {"sequence": "CCCCCCTA", "PBM E-score": -0.437},
      {"sequence": "TATGCACA", "PBM E-score": -0.112},
      {"sequence": "ACTTTACC", "PBM E-score": 0.152},
      {"sequence": "TGGGATAA", "PBM E-score": -0.0513},
      {"sequence": "TCCTAGGA", "PBM E-score": -0.0423},
      {"sequence": "ATGATTCC", "PBM E-score": 0.162},
      {"sequence": "GAGTCGAA", "PBM E-score": 0.0806},
      {"sequence": "CTTCAGGA", "PBM E-score": 0.0876},
      {"sequence": "AGTCAAAA", "PBM E-score": 0.176},
      {"sequence": "ACACTTCA", "PBM E-score": 0.0716},
      {"sequence": "CCAGCATA", "PBM E-score": -0.183},
      {"sequence": "ATCGGTCC", "PBM E-score": 0.0402},
      {"sequence": "CCTGATAG", "PBM E-score": -0.287},
      {"sequence": "AGAGCTCG", "PBM E-score": 0.0783},
      {"sequence": "GTCTCGGA", "PBM E-score": 0.227},
      {"sequence": "AGGCTTGC", "PBM E-score": -0.319},
      {"sequence": "ACATCGGT", "PBM E-score": -0.155},
      {"sequence": "AAGAGCAA", "PBM E-score": -0.0457},
      {"sequence": "CCCATAGA", "PBM E-score": -0.292},
      {"sequence": "CGCTAAAA", "PBM E-score": -0.0854},
      {"sequence": "GTGCGCAC", "PBM E-score": 0.162},
      {"sequence": "ACCGCCAG", "PBM E-score": -0.144},
      {"sequence": "AAGTGACG", "PBM E-score": 0.057},
      {"sequence": "GAAAGTAA", "PBM E-score": 0.0735},
      {"sequence": "CTTGACCC", "PBM E-score": 0.0538},
      {"sequence": "GTTCTATA", "PBM E-score": 0.118},
      {"sequence": "AGATCAGG", "PBM E-score": -0.0506},
      {"sequence": "AGCGTCAC", "PBM E-score": -0.232},
      {"sequence": "CTTCATGC", "PBM E-score": -0.0559},
      {"sequence": "AATGACAT", "PBM E-score": 0.0886},
      {"sequence": "TAAAGTAA", "PBM E-score": 0.0272},
      {"sequence": "CATTGAAC", "PBM E-score": 0.166},
      {"sequence": "ACCTCAAG", "PBM E-score": -0.127},
      {"sequence": "AGCACGGG", "PBM E-score": -0.0491},
      {"sequence": "ACGTGCCG", "PBM E-score": 0.233},
      {"sequence": "CAATAGAG", "PBM E-score": -0.242},
      {"sequence": "CATACCTA", "PBM E-score": -0.249},
      {"sequence": "GGAGCAGA", "PBM E-score": -0.0207},
      {"sequence": "AGAAGGTC", "PBM E-score": -0.112},
      {"sequence": "GAGGTGGA", "PBM E-score": -0.166},
      {"sequence": "GCCGAGGA", "PBM E-score": 0.335},
      {"sequence": "AGAAGTAT", "PBM E-score": 0.103},
      {"sequence": "CGCGTAGA", "PBM E-score": 0.013},
      {"sequence": "ACCGAAGG", "PBM E-score": 0.115},
      {"sequence": "TCGTGACA", "PBM E-score": 0.112},
      {"sequence": "CCCCCGGG", "PBM E-score": 0.0845},
      {"sequence": "CTGCGGAC", "PBM E-score": 0.0668},
      {"sequence": "CTAGTTAA", "PBM E-score": 0.0302},
      {"sequence": "GGGTCCAC", "PBM E-score": -0.28},
      {"sequence": "AACTCGGC", "PBM E-score": 0.273},
      {"sequence": "ACTGCAGA", "PBM E-score": -0.00118},
      {"sequence": "ACCACAGC", "PBM E-score": -0.0729},
      {"sequence": "CTGGAAAA", "PBM E-score": 0.188},
      {"sequence": "TACTAAGA", "PBM E-score": 0.0512},
      {"sequence": "CGAGTCCG", "PBM E-score": 0.247},
      {"sequence": "AAGACTGG", "PBM E-score": -0.198},
      {"sequence": "CGACAGAG", "PBM E-score": -0.212},
      {"sequence": "CCTCGTCG", "PBM E-score": 0.0219},
      {"sequence": "CAGGGGTC", "PBM E-score": -0.227},
      {"sequence": "TGGAGCCA", "PBM E-score": -0.228},
      {"sequence": "AGATAGGC", "PBM E-score": -0.207},
      {"sequence": "CAAGCGGG", "PBM E-score": -0.208},
      {"sequence": "AACTACTT", "PBM E-score": -0.0125},
      {"sequence": "GGGGTCAC", "PBM E-score": -0.23},
      {"sequence": "AGAAATTA", "PBM E-score": 0.354},
      {"sequence": "AGAGGAGA", "PBM E-score": -0.131},
      {"sequence": "CAACGAAC", "PBM E-score": 0.0476},
      {"sequence": "CTGCCGGC", "PBM E-score": 0.369}
    ]}
  ]
}
